# Results as given in the supplement of paper PMC8728848.
# The list shows a part of the results.
# B1: LlpB (Pseudomonas fluorescens) (protein)
# chain: MGSSHHHHHHSSGLVPRGSHMASSGFRIILFNSANNGTAILPPRNCLVAGQYLESPSKRYKLILEADGNLRLYDNGVPIWVADSSVPYTYVDNRPNTNLVTCFYMQGSAFLVDRVGSRTWATIGDWIDGAADRAYLQVQDDGNVVVVDGVPRWARFGFTPAALPNRGVFYPDHGTGPLPSFPVWSWTF
# Tests used:
# Assay in all cases: glycan array binding signal (z-score within array); higher = stronger binding
# Settings in all cases: glycan notation: IUPAC condensed, linker removed
# [1] = biological target: Neu5Ac(a2-3)GalNAc(b1-4)GlcNAc
# How it was run: (§1)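 The binding signal is a Z-score computed within each array and averaged over linkers. Arrays of the same protein sequence at different concentrations or buffers were also averaged together. Data originate from 3228 arrays in the Consortium for Functional Glycomics database, kept only where the protein sequence was available.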
# [2] = biological target: Neu5Ac(a2-3)[GalNAc(b1-4)]Gal(b1-4)Glc
# How it was run: as §1
# [3] = biological target: Neu5Ac(a2-3)[GalNAc(b1-4)]Gal(b1-4)GlcNAc
# How it was run: as §1
# [4] = biological target: Neu5Ac(a2-3)[GalNAc(b1-4)]Gal(b1-4)GlcNAc(b1-3)GalNAc
# How it was run: as §1
# [5] = biological target: Neu5Ac(a2-3)[Neu5Ac(a2-6)]GalNAc
# How it was run: as §1
# Neu5Ac(a2-6)Gal = biological target: Neu5Ac(a2-6)Gal
# How it was run: as §1
# [6] = biological target: Neu5Ac(a2-6)Gal(b1-3)GlcNAc(b1-3)[Gal(b1-4)GlcNAc(b1-6)]Gal(b1-4)Glc
# How it was run: as §1
# Neu5Ac(a2-6)Gal(b1-4)Glc = biological target: Neu5Ac(a2-6)Gal(b1-4)Glc
# How it was run: as §1
# [7] = biological target: Neu5Ac(a2-6)Gal(b1-4)GlcNAc
# How it was run: as §1
# [8] = biological target: Neu5Ac(a2-6)Gal(b1-4)GlcNAc(b1-2)Man
# How it was run: as §1
# [9] = biological target: Neu5Ac(a2-6)Gal(b1-4)GlcNAc(b1-2)Man(a1-3)Man(b1-4)GlcNAc(b1-4)GlcNAc
# How it was run: as §1
# [10] = biological target: Neu5Ac(a2-6)Gal(b1-4)GlcNAc(b1-2)Man(a1-3)[Gal(b1-4)GlcNAc(b1-2)Man(a1-6)]Man(b1-4)GlcNAc(b1-4)GlcNAc
# How it was run: as §1
# [11] = biological target: Neu5Ac(a2-6)Gal(b1-4)GlcNAc(b1-2)Man(a1-3)[GlcNAc(b1-2)Man(a1-6)]Man(b1-4)GlcNAc(b1-4)GlcNAc
# How it was run: as §1
# [12] = biological target: Neu5Ac(a2-6)Gal(b1-4)GlcNAc(b1-2)Man(a1-3)[GlcNAc(b1-4)][Neu5Ac(a2-6)Gal(b1-4)GlcNAc(b1-2)Man(a1-6)]Man(b1-4)GlcNAc(b1-4)GlcNAc
# How it was run: as §1
# [13] = biological target: Neu5Ac(a2-6)Gal(b1-4)GlcNAc(b1-2)Man(a1-3)[Man(a1-6)]Man(b1-4)GlcNAc(b1-4)GlcNAc
# How it was run: as §1
# [14] = biological target: Neu5Ac(a2-6)Gal(b1-4)GlcNAc(b1-2)Man(a1-3)[Neu5Ac(a2-3)Gal(b1-4)GlcNAc(b1-2)Man(a1-6)]Man(b1-4)GlcNAc(b1-4)GlcNAc
# How it was run: as §1
# [15] = biological target: Neu5Ac(a2-6)Gal(b1-4)GlcNAc(b1-2)Man(a1-3)[Neu5Ac(a2-6)Gal(b1-4)GlcNAc(b1-2)Man(a1-6)]Man(b1-4)GlcNAc(b1-4)GlcNAc
# How it was run: as §1
# [16] = biological target: Neu5Ac(a2-6)Gal(b1-4)GlcNAc(b1-2)Man(a1-3)[Neu5Ac(a2-6)Gal(b1-4)GlcNAc(b1-2)Man(a1-6)]Man(b1-4)GlcNAc(b1-4)[Fuc(a1-6)]GlcNAc
# How it was run: as §1
# [17] = biological target: Neu5Ac(a2-6)Gal(b1-4)GlcNAc(b1-2)Man(a1-6)Man(b1-4)GlcNAc(b1-4)GlcNAc
# How it was run: as §1
# [18] = biological target: Neu5Ac(a2-6)Gal(b1-4)GlcNAc(b1-2)Man(a1-6)[Gal(b1-4)GlcNAc(b1-2)Man(a1-3)]Man(b1-4)GlcNAc(b1-4)GlcNAc
# How it was run: as §1
# [19] = biological target: Neu5Ac(a2-6)Gal(b1-4)GlcNAc(b1-2)Man(a1-6)[GlcNAc(b1-2)Man(a1-3)]Man(b1-4)GlcNAc(b1-4)GlcNAc
# How it was run: as §1
# [20] = biological target: Neu5Ac(a2-6)Gal(b1-4)GlcNAc(b1-2)Man(a1-6)[Man(a1-3)]Man(b1-4)GlcNAc(b1-4)GlcNAc
# How it was run: as §1
# [21] = biological target: Neu5Ac(a2-6)Gal(b1-4)GlcNAc(b1-2)[Neu5Ac(a2-6)Gal(b1-4)GlcNAc(b1-4)]Man(a1-3)[GlcNAc(b1-4)][Neu5Ac(a2-6)Gal(b1-4)GlcNAc(b1-2)[Neu5Ac(a2-6)Gal(b1-4)GlcNAc(b1-6)]Man(a1-6)]Man(b1-4)GlcNAc(b1-4)GlcNAc
# How it was run: as §1
# [22] = biological target: Neu5Ac(a2-6)Gal(b1-4)GlcNAc(b1-2)[Neu5Ac(a2-6)Gal(b1-4)GlcNAc(b1-4)]Man(a1-3)[GlcNAc(b1-4)][Neu5Ac(a2-6)Gal(b1-4)GlcNAc(b1-4)Man(a1-6)]Man(b1-4)GlcNAc(b1-4)GlcNAc
# How it was run: as §1
# [23] = biological target: Neu5Ac(a2-6)Gal(b1-4)GlcNAc(b1-2)[Neu5Ac(a2-6)Gal(b1-4)GlcNAc(b1-6)]Man(a1-6)[Neu5Ac(a2-6)Gal(b1-4)GlcNAc(b1-2)Man(a1-3)][GlcNAc(b1-4)]Man(b1-4)GlcNAc(b1-4)GlcNAc
# How it was run: as §1
# [24] = biological target: Neu5Ac(a2-6)Gal(b1-4)GlcNAc(b1-3)Gal(b1-3)GlcNAc
# How it was run: as §1
# [25] = biological target: Neu5Ac(a2-6)Gal(b1-4)GlcNAc(b1-3)Gal(b1-4)GlcNAc
# How it was run: as §1
# [26] = biological target: Neu5Ac(a2-6)Gal(b1-4)GlcNAc(b1-3)Gal(b1-4)GlcNAc(b1-2)Man(a1-3)[Neu5Ac(a2-6)Gal(b1-4)GlcNAc(b1-3)Gal(b1-4)GlcNAc(b1-2)Man(a1-6)]GalNAc
# How it was run: as §1
# [27] = biological target: Neu5Ac(a2-6)Gal(b1-4)GlcNAc(b1-3)Gal(b1-4)GlcNAc(b1-3)Gal(b1-4)GlcNAc
# How it was run: as §1
# [28] = biological target: Neu5Ac(a2-6)Gal(b1-4)GlcNAc(b1-3)Gal(b1-4)GlcNAc(b1-3)Gal(b1-4)GlcNAc(b1-2)Man(a1-3)[Neu5Ac(a2-6)Gal(b1-4)GlcNAc(b1-3)Gal(b1-4)GlcNAc(b1-3)Gal(b1-4)GlcNAc(b1-2)Man(a1-6)]GalNAc
# How it was run: as §1
# [29] = biological target: Neu5Ac(a2-6)Gal(b1-4)GlcNAc(b1-3)Gal(b1-4)GlcNAc(b1-3)GalNAc
# How it was run: as §1
# [30] = biological target: Neu5Ac(a2-6)Gal(b1-4)GlcNAc(b1-3)Gal(b1-4)GlcNAc(b1-3)[Neu5Ac(a2-6)Gal(b1-4)GlcNAc(b1-3)Gal(b1-4)GlcNAc(b1-6)]GalNAc
# How it was run: as §1
# [31] = biological target: Neu5Ac(a2-6)Gal(b1-4)GlcNAc(b1-3)Gal(b1-4)GlcNAc(b1-6)[Gal(b1-3)]GalNAc
# How it was run: as §1
# [32] = biological target: Neu5Ac(a2-6)Gal(b1-4)GlcNAc(b1-3)Gal(b1-4)[Fuc(a1-3)]GlcNAc(b1-3)Gal(b1-4)[Fuc(a1-3)]GlcNAc
# How it was run: as §1
# [33] = biological target: Neu5Ac(a2-6)Gal(b1-4)GlcNAc(b1-3)GalNAc
# How it was run: as §1
# [34] = biological target: Neu5Ac(a2-6)Gal(b1-4)GlcNAc(b1-3)[Neu5Ac(a2-6)Gal(b1-4)GlcNAc(b1-6)]GalNAc
# How it was run: as §1
# [35] = biological target: Neu5Ac(a2-6)Gal(b1-4)GlcNAc(b1-6)GalNAc
# How it was run: as §1
# [36] = biological target: Neu5Ac(a2-6)Gal(b1-4)GlcNAc(b1-6)[Gal(b1-3)GlcNAc(b1-3)]Gal(b1-4)Glc
# How it was run: as §1
binder,measurement,setting,value
B1,glycan array binding signal (z-score),[1],-0.114
same,glycan array binding signal (z-score),[2],-1.61
same,glycan array binding signal (z-score),[3],-0.496
same,glycan array binding signal (z-score),[4],0.621
same,glycan array binding signal (z-score),[5],-0.595
same,glycan array binding signal (z-score),Neu5Ac(a2-6)Gal,0.15
same,glycan array binding signal (z-score),[6],-1.43
same,glycan array binding signal (z-score),Neu5Ac(a2-6)Gal(b1-4)Glc,-0.182
same,glycan array binding signal (z-score),[7],-1.02
same,glycan array binding signal (z-score),[8],-0.792
same,glycan array binding signal (z-score),[9],1.2
same,glycan array binding signal (z-score),[10],-1.22
same,glycan array binding signal (z-score),[11],-0.285
same,glycan array binding signal (z-score),[12],-1.33
same,glycan array binding signal (z-score),[13],2.88
same,glycan array binding signal (z-score),[14],1.31
same,glycan array binding signal (z-score),[15],0.404
same,glycan array binding signal (z-score),[16],3.58
same,glycan array binding signal (z-score),[17],1.11
same,glycan array binding signal (z-score),[18],-1.46
same,glycan array binding signal (z-score),[19],0.268
same,glycan array binding signal (z-score),[20],-0.557
same,glycan array binding signal (z-score),[21],1.22
same,glycan array binding signal (z-score),[22],0.108
same,glycan array binding signal (z-score),[23],-0.232
same,glycan array binding signal (z-score),[24],-0.105
same,glycan array binding signal (z-score),[25],-0.332
same,glycan array binding signal (z-score),[26],2.6
same,glycan array binding signal (z-score),[27],-0.225
same,glycan array binding signal (z-score),[28],0.207
same,glycan array binding signal (z-score),[29],-0.312
same,glycan array binding signal (z-score),[30],-0.061
same,glycan array binding signal (z-score),[31],0.354
same,glycan array binding signal (z-score),[32],-0.376
same,glycan array binding signal (z-score),[33],0.312
same,glycan array binding signal (z-score),[34],0.97
same,glycan array binding signal (z-score),[35],-0.717
same,glycan array binding signal (z-score),[36],0.758

# Not a retest: entries from further up.
binder,measurement,setting,value
B1,glycan array binding signal (z-score),[20],-0.557
same,glycan array binding signal (z-score),[21],1.22
same,glycan array binding signal (z-score),[22],0.108
